A short description of the assay: qHTS Assay for Modulators of Lamin A Splicing. The conditions noted are these: HeLa LMNA splicing GFP/RFP minigene ratio, 48 h. In outline:
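Read-out is the ratio of GFP to DsRed2 object intensity, acquired by 488 nm laser-scanning cytometry on HeLa lamin A-EGFP minigene reporter cells. Compound incubation 48 hrs at 37 °C in Opti-MEM with 2% FBS; DMSO 0.5% final.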
On the technique in general: Quantitative high-throughput screening tests each substance at several concentrations.

Where [1] appears, read: measured here: GFP splicing reporter channel.
Setting [2] is: measured here: RFP viability control channel.

SMILES strings stand for the structures. Some of the results follow. Further columns of the screen follow, without active or inactive calls. Most of these compounds were active or inconclusive in the main read-out, so they are no random draw. Potencies come from curve fits of mixed quality, noted in brackets.

As a reminder, the AC50 is the midpoint of the concentration-response curve, whichever way the signal moves. Regarding `C/C(CC(C)(C)C1CCCCC1)=N\NC(N)=S`, the AC50 runs as follows: under setting [1], 11.2 µM [rising, single point]; under setting [2], 17.8 µM [rising, single point].
As to `CCn1cc(C(=O)NCc2cccc(F)c2)c(=O)c2cc(F)c(N3CCN(C(=O)c4ccco4)CC3)cc21`, the concentration at half-maximal activity (AC50) is 17.8 µM [rising, single point] under setting [1] and 20 µM [rising, single point] under setting [2].
As to `COc1ccc(-c2cnc(C)o2)cc1S(=O)(=O)Nc1ccc(OC(F)(F)F)cc1`, under setting [1], the AC50 is 0.891 µM [falling, full curve, poor fit].
Consider `COc1ccc(NC(=O)C2CCCN(c3c4c(nc5ncnn35)CCC4)C2)cc1` (stereo unspecified), for which the AC50 was 11.2 µM [rising, partial curve] under setting [1] and 12.6 µM [rising, partial curve] under setting [2].
Regarding `Cc1ccc(NC(=O)C(OC(=O)c2ccc(O)cc2)c2ccccc2)cc1Cl` (stereo unspecified), the AC50 under setting [2] was 31.6 µM [rising, single point].
As for `COc1cc(OC)cc(C(=O)Nc2ccc(CN3CCCCC3)cc2)c1`, the AC50 by setting is: under setting [1], 0.00501 µM [falling, full curve]; under setting [2], 0.00447 µM [falling, full curve, poor fit].
Turning to `O=C(CCS(=O)(=O)c1ccccc1)N(Cc1cccnc1)c1nc2ccc(F)cc2s1`, the AC50 reads like this: under setting [1], 4.47 µM [falling, full curve]; under setting [2], 31.6 µM [falling, partial curve, poor fit].
Turning to `CC(C)Cc1nn2c(=O)cc(COC(=O)c3ccc(NC(=O)CCc4ccccc4)cc3)nc2s1`, the AC50 under setting [2] was 0.0158 µM [falling, full curve, poor fit].
Regarding `O=S(=O)(/C=C/c1ccccc1)N1CCN(Cc2ccc3c(c2)OCO3)CC1`, under setting [1], the AC50 was 0.0891 µM [falling, full curve, poor fit].
`Cc1ccc(NC(=O)C(C)Sc2nc(-c3ccccc3)c(C#N)c(=O)[nH]2)c(C)c1` (stereo unspecified): the concentration at half-maximal activity (AC50) is 0.158 µM [falling, full curve, poor fit] under setting [1] and 0.0891 µM [falling, full curve, poor fit] under setting [2].
On to `CCOC(=O)c1ccc(NC(=O)c2ccccc2[N+](=O)[O-])cc1`, for which, under setting [1], the half-maximal activity concentration (AC50) was 6.31 µM [rising, partial curve, poor fit].
For `CC(=O)Nc1ccc(SCC(=O)c2cc(C)n(Cc3cccs3)c2C)cc1`, the AC50 under setting [1] was 8.91 µM [rising, partial curve] and the AC50 under setting [2] was 7.94 µM [rising, partial curve].
Turning to `Cc1noc(/C=C/N(C)C)c1S(=O)(=O)NC1CCCCC1`, the concentration at half-maximal activity (AC50) under setting [2] is 14.1 µM [rising, single point].
`CC(C)(C)c1cnnn1-c1ccc(/C=N/Nc2ccc([N+](=O)[O-])cc2)cc1`: the AC50 runs as follows: under setting [1], 35.5 µM [rising, single point]; under setting [2], 35.5 µM [rising, single point].
In the case of `COc1ccccc1OCCCC(=O)Nc1ccc([N+](=O)[O-])cc1Br`, the AC50 under setting [1] is 0.891 µM [falling, full curve, poor fit].
On to `COc1cccc(/C=N/n2c(C)nc3ccccc32)c1OC`, for which the AC50 under setting [2] is 31.6 µM [rising, single point].
In the case of `O=C(COc1ccc2ccccc2c1)Nc1ccncc1`, the AC50 is, setting by setting: under setting [1], 20 µM [falling, partial curve]; under setting [2], 11.2 µM [falling, partial curve].
Turning to `C=CCNC(=S)Nc1ccc(F)cc1F`, the AC50 under setting [2] is 17.8 µM [rising, partial curve, poor fit].
On to `Cc1ccc(O)c(C2=Nc3ccccc3N=C(c3cccs3)C2)c1`, for which the half-maximal activity concentration (AC50) under setting [1] was 12.6 µM [rising, single point] and the AC50 under setting [2] was 22.4 µM [rising, single point].
Take `O=C(NCCc1ccccc1)c1ccc(CS(=O)(=O)Cc2ccccc2Cl)o1`: the AC50 under setting [1] is 7.08 µM [falling, full curve, poor fit].
Regarding `COC(=O)Cn1ncc(N2C3CC(CC(C)(C)C3)C2C)c(Cl)c1=O` (stereo unspecified), the AC50 under setting [1] is 14.1 µM [rising, single point].
For the molecule `O=C(COC(=O)c1cccc(NC(=O)c2ccco2)c1)c1ccc(Br)cc1`, the AC50 under setting [2] is 35.5 µM [rising, single point].
In the case of `CCOC(=O)c1sc(-c2ccccc2)cc1NC(=O)Nc1ccccc1`, the AC50 under setting [1] was 31.6 µM [rising, single point] and the concentration at half-maximal activity (AC50) under setting [2] is 35.5 µM [rising, single point].
As to `CCCCC(=O)Nc1nn(CC(C)C)c2nc3ccccc3cc12`, the AC50 is 25.1 µM [rising, partial curve, poor fit] under setting [1] and 4.47 µM [rising, single point] under setting [2].
As for `O=C(CSCc1cccc(Cl)c1)N1CCN(Cc2ccc3c(c2)OCO3)CC1`, the half-maximal activity concentration (AC50) under setting [2] was 35.5 µM [rising, single point].
With `Cc1nn(Cc2c(Cl)cccc2Cl)c(C)c1NC(=O)c1cn(-c2ccccc2)nc1-c1ccccc1`, the AC50 is 7.08 µM [falling, full curve] under setting [1] and 5.62 µM [falling, full curve] under setting [2].
As to `Cc1ccc(C(=O)/C=C/c2c[nH]c3ccccc23)cc1`, the AC50 under setting [1] is 15.8 µM [falling, single point] and the AC50 under setting [2] is 35.5 µM [falling, single point].
For the molecule `O=C(COC(=O)Cn1cnc2ccccc2c1=O)Nc1ccccc1Sc1ccc(Cl)cc1`, the AC50 is, setting by setting: under setting [1], 11.2 µM [rising, single point]; under setting [2], 12.6 µM [rising, partial curve].
Turning to `CC(C)c1ccc(NC(=O)C[n+]2ccn(C3=C([O-])c4ccccc4C3=O)c2)cc1`, under setting [1], the AC50 was 0.00794 µM [falling, full curve, poor fit].
With `CCOCCn1c(CN(Cc2ccccc2)Cc2ccccc2)nc2c1c(=O)n(C)c(=O)n2C`, under setting [1], the AC50 is 35.5 µM [rising, single point].
Take `Cn1c(Cc2ccccc2)nnc1SCC(=O)N1CCN(c2ccccc2)CC1`: the AC50 under setting [1] was 10 µM [rising, partial curve, poor fit] and the AC50 under setting [2] was 15.8 µM [rising, single point].
Turning to `COc1ccc(-c2nnc(NC(=O)c3ccc(F)cc3)o2)cc1`, under setting [2], the AC50 is 6.31 µM [rising, full curve].
For the molecule `Fc1ccc(CSc2ncnc3scc(-c4ccccc4)c23)cc1`, the AC50 under setting [2] was 15.8 µM [rising, partial curve].
Turning to `CC(C)Cc1nc(N2CCOCC2)c(C#N)c2c1CCC2`, the AC50 reads like this: under setting [1], 35.5 µM [rising, single point]; under setting [2], 35.5 µM [rising, single point].

The values are drawn from PubChem BioAssay AID1487 (National Center for Advancing Translational Sciences (NCATS), 2009).
